Laboratory results as given in PubChem BioAssay AID624297 (National Center for Advancing Translational Sciences (NCATS), 2012).
Hit rate of the full screen: of about 340,000 compounds, about 6,200 (1.8%) were called active. The inconclusive results got no clear call from the source; some entries with a clear call stand among them for comparison. Calls come from the whole dose curve; as a rule, active = well fitted activation curve with a large enough effect; inconclusive = small, poorly fitted or top-dose-only effect; inactive = no such curve, though single readings can be large or run the other way. Where the call is inconclusive, the potency comes from a doubtful curve fit.

Experiment: A quantitative high throughput screen for small molecules that induce DNA re-replication in SW480 colon adenocarcinoma cells. For re-replication activation: % of control where 0% means no effect. Note: nearly all actives have a fitted effect of over 55% in size.
Conditions: Hoechst DNA content imaging, 48 h; re-replication activation: at 46.1 µM (top of the series) unless noted
Outline: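 Hoechst fluorescence of nuclei (405 nm excitation, 500-530 nm emission) measured by plate-scanning imager after 48 hr compound exposure at 37 C; re-replication scored as increased number of nuclei with elevated intensity.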
Potency is the fitted concentration of half-maximal effect.

SMILES | Potency | re-replication activation
CC(=O)OC1COC(n2c(O)c(N=NC(N)=S)c3ccccc32)C(OC(C)=O)C1OC(C)=O (centres undefined) | inconclusive: 6.51 µM [activator, single point] | 
CCn1nc(NC(=O)C2CCCO2)c2cc3cccc(C)c3nc21 (centres undefined) | active: 18.4 µM | 
Cc1ccc(OCC(O)CN2CCN(Cc3ccc4c(c3)OCO4)CC2)c(C)c1 (centres undefined) | inconclusive: 29.1 µM [activator, single point] | 
O=C1CCN(Cc2ccccc2)CCN1[C@H](CO)Cc1ccccc1 | active: 5.17 µM | 
O=C(/C=C/c1ccc2c(c1)OCO2)c1ccco1 | inconclusive: 29.1 µM [activator, single point] | 
CCCCCCCC#Cc1ccccc1/C=N/S(=O)c1ccc(C)cc1 (centres undefined) |  | inactive: 4.4%
COc1cccc(-n2c(SCC(=O)Nc3cc(C)on3)nc3c([nH]c4ccccc43)c2=O)c1 |  | inactive: 15.2%
Cn1nc(C(F)(F)F)c2cc(NC(=O)OCc3ccc(F)cc3)sc21 |  | inactive: -5.62%
Cc1cccc(NC(=S)NCCC(c2ccccc2)c2ccccc2)c1 |  | inactive: 8.63%
Cc1ccc(N=Cc2c(O)ccc3ccccc23)cc1F | inconclusive: 0.0411 µM [activator, partial curve, poor fit] | 
CN(C)c1ccc(/C=C(/C(=O)c2ccc(Cl)cc2Cl)n2cncn2)cc1 | active: 18.4 µM | 
CCCc1[nH]n(-c2nc3ccccc3s2)c(=O)c1C=NCCCOC |  | inactive: 2.97%
Cn1c(=O)c2c(nc(SCC(=O)N3CCOCC3)n2C)n(C)c1=O | inconclusive: 29.1 µM [activator, single point] | 
C=C(C)Cn1c(SCC(=O)N/N=C/c2c(O)ccc3ccccc23)nc2ccccc2c1=O | inconclusive: 29.1 µM [activator, single point] | 
COc1cc2c(cc1OC)C(c1ccc(-c3ccc(Cl)cc3Cl)o1)=NCC2 | inconclusive: 18.4 µM [activator, single point] | 
Cc1ccc(/C=C/C(=O)Nc2cc(S(=O)(=O)N3CCCCCC3)ccc2OCC(F)(F)F)o1 | inconclusive: 29.1 µM [activator, single point] | 
CCCOc1ccc(C(F)(F)F)cc1NS(=O)(=O)c1ccc(Cl)nc1 | inconclusive: 0.0046 µM [activator, full curve, poor fit] | 
COc1cc(/C=N/NC(=O)c2cc(-c3ccccc3OC(C)C)nc3ccccc23)ccc1O | inconclusive: 18.4 µM [activator, partial curve, poor fit] | 
COc1ccc2c(c1)C=C(CN1CCC(CO)(CCc3ccccc3)CC1)CO2 | inconclusive: 29.1 µM [activator, single point] | 

Reformatted: entries from further up
CN(C)c1ccc(/C=C(/C(=O)c2ccc(Cl)cc2Cl)n2cncn2)cc1
  Potency: active: 18.4 µM
CCCc1[nH]n(-c2nc3ccccc3s2)c(=O)c1C=NCCCOC
  re-replication activation: inactive: 2.97%
